Data reported in article doi:10.1101/2020.05.12.090688.
These are yes or no findings as the source states them, for the method shown. In cells and extracts the contact can be indirect. Some results given as binding are weak or reduced against the parent protein; the word gives no strength. Tags and fused reporters may be left off the sequences shown.

Amino acid sequences for entries named in this document (tags omitted).
UniProt P29351: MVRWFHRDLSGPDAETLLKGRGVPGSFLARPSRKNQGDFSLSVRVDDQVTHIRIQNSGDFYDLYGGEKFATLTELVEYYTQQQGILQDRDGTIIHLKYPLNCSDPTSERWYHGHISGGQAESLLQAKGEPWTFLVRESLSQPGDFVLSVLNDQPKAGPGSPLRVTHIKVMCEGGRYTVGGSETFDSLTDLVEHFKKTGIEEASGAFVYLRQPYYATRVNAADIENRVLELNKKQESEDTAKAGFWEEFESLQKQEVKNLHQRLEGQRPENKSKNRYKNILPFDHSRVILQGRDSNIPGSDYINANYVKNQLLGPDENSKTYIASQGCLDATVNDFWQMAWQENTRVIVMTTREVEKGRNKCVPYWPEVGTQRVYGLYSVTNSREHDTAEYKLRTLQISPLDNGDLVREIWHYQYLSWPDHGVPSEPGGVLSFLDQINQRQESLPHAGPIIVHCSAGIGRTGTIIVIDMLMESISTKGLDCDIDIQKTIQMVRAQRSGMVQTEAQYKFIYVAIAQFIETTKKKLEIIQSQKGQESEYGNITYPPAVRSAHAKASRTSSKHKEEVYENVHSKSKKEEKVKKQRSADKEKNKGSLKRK

Biological target: T1, Siglec-F with C-terminal myc epitope tag (mouse) (UniProt Q920G3)
T1 sequence: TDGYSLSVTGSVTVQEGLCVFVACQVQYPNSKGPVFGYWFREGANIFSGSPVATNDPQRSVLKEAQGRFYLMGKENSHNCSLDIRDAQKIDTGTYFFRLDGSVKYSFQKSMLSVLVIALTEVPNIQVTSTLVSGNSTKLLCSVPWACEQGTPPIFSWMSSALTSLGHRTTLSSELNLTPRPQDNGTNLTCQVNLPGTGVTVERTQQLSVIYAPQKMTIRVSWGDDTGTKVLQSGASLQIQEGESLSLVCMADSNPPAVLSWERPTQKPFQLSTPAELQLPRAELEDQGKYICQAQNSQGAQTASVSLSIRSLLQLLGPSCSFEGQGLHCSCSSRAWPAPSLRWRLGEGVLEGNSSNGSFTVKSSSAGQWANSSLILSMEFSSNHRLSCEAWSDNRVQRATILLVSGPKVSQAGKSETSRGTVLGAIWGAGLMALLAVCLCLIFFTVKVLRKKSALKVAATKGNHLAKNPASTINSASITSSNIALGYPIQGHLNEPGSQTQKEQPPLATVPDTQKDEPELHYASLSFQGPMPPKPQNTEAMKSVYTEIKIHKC
Assay: co-IP

binding: binds
Substance: SHP-1 (Ptpn6) (from UniProt P29351 1-595) (enzyme)
